Measured values reported in patent US20250057803A1, “PRODUCTS OF MANUFACTURE AND METHODS FOR TREATING, AMELIORATING OR PREVENTING CORONAVIRUS INFECTION” (TOPELIA AUST LIMITED (ACN 652 771 670), priority 2020, published 2025).
For at least one compound, name, drawing or mass did not settle the structure.

System: coronavirus COVID-19
Format: in vivo
Conditions: result in words

SMILES: CCC(CC)COC(=O)[C@H](C)N[P@](=O)(OC[C@H]1O[C@@](C#N)(c2ccc3c(N)ncnn23)[C@H](O)[C@@H]1O)Oc1ccccc1 [remdesivir]
- clinical outcome: had not responded
